Amino acid sequences for entries named in this document (tags omitted). A change or cut given only in a name is not applied to a line headed by its entry.
UniProt P18054: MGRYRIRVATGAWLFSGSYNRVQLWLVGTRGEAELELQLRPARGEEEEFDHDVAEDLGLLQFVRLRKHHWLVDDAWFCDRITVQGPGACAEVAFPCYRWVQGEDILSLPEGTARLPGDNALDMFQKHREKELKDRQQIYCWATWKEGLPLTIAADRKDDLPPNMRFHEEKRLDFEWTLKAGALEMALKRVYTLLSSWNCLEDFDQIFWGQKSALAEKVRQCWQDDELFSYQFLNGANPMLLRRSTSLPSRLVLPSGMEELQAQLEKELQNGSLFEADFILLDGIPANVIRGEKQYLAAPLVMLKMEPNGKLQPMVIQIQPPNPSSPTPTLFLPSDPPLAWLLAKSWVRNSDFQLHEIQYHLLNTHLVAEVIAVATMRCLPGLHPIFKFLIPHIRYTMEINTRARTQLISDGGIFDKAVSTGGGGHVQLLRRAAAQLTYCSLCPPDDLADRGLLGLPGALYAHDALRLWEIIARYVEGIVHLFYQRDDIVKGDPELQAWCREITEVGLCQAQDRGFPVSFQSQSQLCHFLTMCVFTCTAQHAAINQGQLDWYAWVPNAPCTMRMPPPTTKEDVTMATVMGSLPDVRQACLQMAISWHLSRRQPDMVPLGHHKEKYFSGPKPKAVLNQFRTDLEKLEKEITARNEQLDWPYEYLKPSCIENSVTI

Among all 580,000 compounds or so, about 6,100 (1.1%) were called active. Inconclusive results, whose numbers are uncertain, are shown with a selection of clear calls. The call rests on the fitted dose curve; in most records, active means well fitted inhibition curve with a large enough effect; inconclusive means small, poorly fitted or top-dose-only effect, or another doubt; inactive means no such curve, though single readings can be large or run the other way. Where the call is inconclusive, the potency comes from a doubtful curve fit.
These molecules were tested against Polyunsaturated fatty acid lipoxygenase ALOX12 (Homo sapiens) (UniProt P18054) (assay: Primary qHTS assay for inhibitors of human arachidonate 12S-lipoxygenase (ALOX12): Round 2). Details: purified 12hLO, xylenol orange hydroperoxide absorbance; series mostly up to 108 µM.
How it was run: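 Purified human 12hLO at 150 nM in 25 mM Hepes, 0.01% Triton X-100, pH 7.0, preincubated 15 min at room temperature with compound. Reaction started with 40 uM arachidonic acid, 30 min at room temperature. Hydroperoxide measured by Fe-xylenol orange, 573/405 nm absorbance ratio.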
In the case of `COCCN(CCOC)C(=O)c1cc2ccccc2c(OC)n1`, the Potency is reported as “inactive”.
In the case of `Cc1cc(NC(=O)Cc2ccccc2)no1`, the Potency is reported as inconclusive: 44.7 µM [inhibitor, partial curve, poor fit].
In the case of `CN(C)CCNc1oc(-c2ccc(COc3ccc(Cl)cc3)o2)nc1C#N`, the Potency is reported as inconclusive: 56.2 µM [inhibitor, partial curve, poor fit].
`C=CCN1C(=O)CN=C1Nc1ccccc1` was tested, and the Potency was inconclusive: 5.62 µM [inhibitor, partial curve, poor fit].
`CC(OC(=O)CN(C)S(=O)(=O)c1ccc(Cl)cc1)C(=O)Nc1cccc(Cl)c1` (configuration not stated) was tested, and the Potency was inconclusive: 100 µM [inhibitor, single point].
For `Cc1cc(C)c(NC(=O)CSc2nc(=O)n(CCN3CCOCC3)c3c2CCCC3)c(C)c1`, the Potency was inconclusive: 50.1 µM [inhibitor, partial curve, poor fit].
For `COc1ccc2cc1Nc1ccc(cc1)C[C@H](NCc1cccc(O)c1)C(=O)N(C)[C@@H](C(=O)Nc1ccccc1)C2`, the Potency was inconclusive: 15.8 µM [inhibitor, full curve].
For `Cc1cc(C)cc(Oc2nc3c(C)cccn3c(=O)c2/C=C(\C#N)c2nc3ccccc3s2)c1`, the Potency was inconclusive: 63.1 µM [inhibitor, partial curve, poor fit].
In the case of `CC(C)c1ccc(NC(=O)CSc2nc3ccsc3c(=O)n2Cc2ccc(C(=O)O)cc2)cc1`, the Potency is reported as “inactive”.
With `Cc1cccc(C(=O)N[C@H](C(=O)NCCc2ccc(Cl)cc2)C(C)C)c1` the Potency was inconclusive: 141 µM [inhibitor, partial curve, poor fit].
`COc1ccc(NC(=O)CNC(c2ccccc2)c2ccccc2)cc1` was tested, and the Potency was inconclusive: 3.16 µM [inhibitor, full curve, poor fit].
With `Cc1cccc(C)c1NC(=O)CN(C)CC(=O)Nc1ccc(F)c(Cl)c1` the Potency was “inactive”.
With `O=C1COc2ccc(-c3cccc(O)c3)nc2CN1Cc1ccc(C(F)(F)F)cc1` the Potency was inconclusive: 20 µM [inhibitor, full curve, poor fit].
For `COc1cc(OC)c(C2N(c3cc(C)on3)C(=O)C3CCCN32)cc1OC` (configuration not stated), the Potency was inconclusive: 31.6 µM [inhibitor, single point].
In the case of `Cc1ccc(Cl)cc1-n1ncc2c(N3CCN(Cc4ccccc4)CC3)ncnc21`, the Potency is reported as “inactive”.
`Cn1nc(C(=O)N2CCC3(CC2)N=C(c2ccc(Br)cc2)NO3)c2ccccc21` was tested, and the Potency was inconclusive: 50.1 µM [inhibitor, partial curve, poor fit].
`CN1CCN(C(=S)NC(=O)c2ccco2)CC1` was tested, and the Potency was inconclusive: 4.47 µM [inhibitor, full curve, poor fit].

Source: PubChem BioAssay AID1671190 (National Center for Advancing Translational Sciences (NCATS), 2021)
Potency means the concentration at half of the fitted maximal effect.
